The target of one assay is T1, His-PDK1_(1-556), O15530.
T1 chain: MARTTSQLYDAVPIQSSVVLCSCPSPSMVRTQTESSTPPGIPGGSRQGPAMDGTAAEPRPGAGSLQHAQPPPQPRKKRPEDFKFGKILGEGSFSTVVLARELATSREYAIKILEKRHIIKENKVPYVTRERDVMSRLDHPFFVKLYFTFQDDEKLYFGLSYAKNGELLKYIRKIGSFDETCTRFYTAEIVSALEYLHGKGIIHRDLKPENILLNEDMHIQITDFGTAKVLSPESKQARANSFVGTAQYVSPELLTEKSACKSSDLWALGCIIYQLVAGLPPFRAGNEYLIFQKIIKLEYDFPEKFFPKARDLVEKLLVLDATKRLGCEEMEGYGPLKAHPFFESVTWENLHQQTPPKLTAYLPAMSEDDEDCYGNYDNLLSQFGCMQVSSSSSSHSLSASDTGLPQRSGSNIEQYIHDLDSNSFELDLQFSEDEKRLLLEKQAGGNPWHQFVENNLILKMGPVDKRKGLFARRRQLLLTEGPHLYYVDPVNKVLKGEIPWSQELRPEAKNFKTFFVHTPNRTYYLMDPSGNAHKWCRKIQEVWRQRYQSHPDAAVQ
As to the kind of experiment: small-angle X-ray scattering (batch); 20 mM Tris-HCl pH 7,4, 250 mM NaCl, 1 mM DTT; without HYG8; both purified. To be noted: remark: other sources report otherwise.

For another assay, the target named is T2, GST-PDK1_(1-556), O15530.
T2 chain: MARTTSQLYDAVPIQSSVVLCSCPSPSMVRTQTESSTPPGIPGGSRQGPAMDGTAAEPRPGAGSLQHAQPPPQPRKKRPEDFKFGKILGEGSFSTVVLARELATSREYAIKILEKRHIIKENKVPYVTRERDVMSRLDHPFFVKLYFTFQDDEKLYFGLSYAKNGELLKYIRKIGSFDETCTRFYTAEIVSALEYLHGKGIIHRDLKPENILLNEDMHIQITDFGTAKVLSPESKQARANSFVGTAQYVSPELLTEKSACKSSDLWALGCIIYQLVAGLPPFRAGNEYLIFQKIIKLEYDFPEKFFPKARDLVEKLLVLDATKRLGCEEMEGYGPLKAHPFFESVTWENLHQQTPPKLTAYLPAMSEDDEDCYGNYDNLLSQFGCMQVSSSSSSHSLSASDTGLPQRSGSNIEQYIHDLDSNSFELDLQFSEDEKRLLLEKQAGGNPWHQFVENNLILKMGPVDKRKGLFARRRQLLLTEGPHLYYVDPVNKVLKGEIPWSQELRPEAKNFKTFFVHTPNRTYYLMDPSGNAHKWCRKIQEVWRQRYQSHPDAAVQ
The assay can be described thus: AlphaScreen or HTRF; His-PDK1_(1-556) and GST-PDK1_(1-556); nickel chelate-coated acceptor beads and GSH-coated donor beads; pH 7.4, 150 mM NaCl, 0.1% BSA, 0.05% Tween20, 2 mM DTT; 60 min at room temperature; both purified. The note with it: remark: other sources report otherwise.

In the next assay the target is T3, GST-PDK1_(360-556) (UniProt O15530).
T3 sequence: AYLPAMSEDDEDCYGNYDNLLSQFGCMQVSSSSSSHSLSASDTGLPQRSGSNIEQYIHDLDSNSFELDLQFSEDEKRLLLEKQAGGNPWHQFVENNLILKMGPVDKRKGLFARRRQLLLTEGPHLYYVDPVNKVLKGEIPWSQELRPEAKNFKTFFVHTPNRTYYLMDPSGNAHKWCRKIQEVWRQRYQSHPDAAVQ
As to the kind of experiment: condition: only with HYG6, HYG7, HYG8 or HYG14 (IC50 20-35 nM); AlphaScreen or HTRF; as a2 (His-PDK1_(1-556) and GST-PDK1_(360-556)), with inositol phosphate derivatives HYG6, HYG7, HYG8 or HYG14 added; both purified. (Alpha assays give light when donor and acceptor beads are brought close together.)

For a further assay, the target named is T4, GST-PDK1_(1-556) (UniProt O15530 1-556).
T4 construct: source: HEK293 cells, transient transfection of pEBG2T plasmid, purified, dialyzed to remove GSH
T4 sequence (looked up): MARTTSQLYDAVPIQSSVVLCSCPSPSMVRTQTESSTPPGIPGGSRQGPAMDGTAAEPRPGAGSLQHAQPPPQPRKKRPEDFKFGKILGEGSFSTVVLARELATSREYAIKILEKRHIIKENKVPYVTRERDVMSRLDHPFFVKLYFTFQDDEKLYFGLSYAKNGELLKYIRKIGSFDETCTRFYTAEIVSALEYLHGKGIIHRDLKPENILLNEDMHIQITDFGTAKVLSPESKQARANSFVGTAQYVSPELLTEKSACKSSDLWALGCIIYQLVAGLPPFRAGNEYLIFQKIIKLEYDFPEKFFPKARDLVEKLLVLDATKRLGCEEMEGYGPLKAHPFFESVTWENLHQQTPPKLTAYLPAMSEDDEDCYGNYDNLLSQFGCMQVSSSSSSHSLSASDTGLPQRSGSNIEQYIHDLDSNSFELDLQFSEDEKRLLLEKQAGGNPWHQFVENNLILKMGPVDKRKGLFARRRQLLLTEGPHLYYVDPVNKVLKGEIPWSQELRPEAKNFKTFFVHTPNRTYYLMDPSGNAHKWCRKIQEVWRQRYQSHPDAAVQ
The assay can be described thus: AlphaScreen or HTRF; as a1 (His-PDK1_(1-556) and GST-PDK1_(1-556)), with inositol phosphate derivatives added; both purified.

No constants are given. Whether binding was seen depends on the method and setting. Some results given as binding are weak or reduced against the parent protein; the word gives no strength. Sequences can lack the tags named with a protein.

B1: His-PDK1_(1-556), O15530 1-556 (enzyme)
chain: MARTTSQLYDAVPIQSSVVLCSCPSPSMVRTQTESSTPPGIPGGSRQGPAMDGTAAEPRPGAGSLQHAQPPPQPRKKRPEDFKFGKILGEGSFSTVVLARELATSREYAIKILEKRHIIKENKVPYVTRERDVMSRLDHPFFVKLYFTFQDDEKLYFGLSYAKNGELLKYIRKIGSFDETCTRFYTAEIVSALEYLHGKGIIHRDLKPENILLNEDMHIQITDFGTAKVLSPESKQARANSFVGTAQYVSPELLTEKSACKSSDLWALGCIIYQLVAGLPPFRAGNEYLIFQKIIKLEYDFPEKFFPKARDLVEKLLVLDATKRLGCEEMEGYGPLKAHPFFESVTWENLHQQTPPKLTAYLPAMSEDDEDCYGNYDNLLSQFGCMQVSSSSSSHSLSASDTGLPQRSGSNIEQYIHDLDSNSFELDLQFSEDEKRLLLEKQAGGNPWHQFVENNLILKMGPVDKRKGLFARRRQLLLTEGPHLYYVDPVNKVLKGEIPWSQELRPEAKNFKTFFVHTPNRTYYLMDPSGNAHKWCRKIQEVWRQRYQSHPDAAVQ
Consider B1, for which the binding result with His-PDK1_(1-556), O15530 is on record as “binds”; with GST-PDK1_(1-556), O15530 it was “binds”.

B2: His-PDK1_(1-556) (enzyme, UniProt O15530 1-556)
chain: MARTTSQLYDAVPIQSSVVLCSCPSPSMVRTQTESSTPPGIPGGSRQGPAMDGTAAEPRPGAGSLQHAQPPPQPRKKRPEDFKFGKILGEGSFSTVVLARELATSREYAIKILEKRHIIKENKVPYVTRERDVMSRLDHPFFVKLYFTFQDDEKLYFGLSYAKNGELLKYIRKIGSFDETCTRFYTAEIVSALEYLHGKGIIHRDLKPENILLNEDMHIQITDFGTAKVLSPESKQARANSFVGTAQYVSPELLTEKSACKSSDLWALGCIIYQLVAGLPPFRAGNEYLIFQKIIKLEYDFPEKFFPKARDLVEKLLVLDATKRLGCEEMEGYGPLKAHPFFESVTWENLHQQTPPKLTAYLPAMSEDDEDCYGNYDNLLSQFGCMQVSSSSSSHSLSASDTGLPQRSGSNIEQYIHDLDSNSFELDLQFSEDEKRLLLEKQAGGNPWHQFVENNLILKMGPVDKRKGLFARRRQLLLTEGPHLYYVDPVNKVLKGEIPWSQELRPEAKNFKTFFVHTPNRTYYLMDPSGNAHKWCRKIQEVWRQRYQSHPDAAVQ
Turning to B2, the binding result in the assay with GST-PDK1_(360-556) is given as “no binding”; with GST-PDK1_(1-556) it was “no binding (condition: with HYG6, HYG7, HYG8 or HYG14)”.

Values taken from PMC7614687, “Modulation of the substrate specificity of the kinase PDK1 by distinct conformations of the full-length protein*” (Science signaling, 2023).
